The source of these data is article PMC10528058.

Sequences of proteins named here, by UniProt entry; tags and fusion partners are left off. Residues count along the entry.
UniProt P01027, residues 25-1663: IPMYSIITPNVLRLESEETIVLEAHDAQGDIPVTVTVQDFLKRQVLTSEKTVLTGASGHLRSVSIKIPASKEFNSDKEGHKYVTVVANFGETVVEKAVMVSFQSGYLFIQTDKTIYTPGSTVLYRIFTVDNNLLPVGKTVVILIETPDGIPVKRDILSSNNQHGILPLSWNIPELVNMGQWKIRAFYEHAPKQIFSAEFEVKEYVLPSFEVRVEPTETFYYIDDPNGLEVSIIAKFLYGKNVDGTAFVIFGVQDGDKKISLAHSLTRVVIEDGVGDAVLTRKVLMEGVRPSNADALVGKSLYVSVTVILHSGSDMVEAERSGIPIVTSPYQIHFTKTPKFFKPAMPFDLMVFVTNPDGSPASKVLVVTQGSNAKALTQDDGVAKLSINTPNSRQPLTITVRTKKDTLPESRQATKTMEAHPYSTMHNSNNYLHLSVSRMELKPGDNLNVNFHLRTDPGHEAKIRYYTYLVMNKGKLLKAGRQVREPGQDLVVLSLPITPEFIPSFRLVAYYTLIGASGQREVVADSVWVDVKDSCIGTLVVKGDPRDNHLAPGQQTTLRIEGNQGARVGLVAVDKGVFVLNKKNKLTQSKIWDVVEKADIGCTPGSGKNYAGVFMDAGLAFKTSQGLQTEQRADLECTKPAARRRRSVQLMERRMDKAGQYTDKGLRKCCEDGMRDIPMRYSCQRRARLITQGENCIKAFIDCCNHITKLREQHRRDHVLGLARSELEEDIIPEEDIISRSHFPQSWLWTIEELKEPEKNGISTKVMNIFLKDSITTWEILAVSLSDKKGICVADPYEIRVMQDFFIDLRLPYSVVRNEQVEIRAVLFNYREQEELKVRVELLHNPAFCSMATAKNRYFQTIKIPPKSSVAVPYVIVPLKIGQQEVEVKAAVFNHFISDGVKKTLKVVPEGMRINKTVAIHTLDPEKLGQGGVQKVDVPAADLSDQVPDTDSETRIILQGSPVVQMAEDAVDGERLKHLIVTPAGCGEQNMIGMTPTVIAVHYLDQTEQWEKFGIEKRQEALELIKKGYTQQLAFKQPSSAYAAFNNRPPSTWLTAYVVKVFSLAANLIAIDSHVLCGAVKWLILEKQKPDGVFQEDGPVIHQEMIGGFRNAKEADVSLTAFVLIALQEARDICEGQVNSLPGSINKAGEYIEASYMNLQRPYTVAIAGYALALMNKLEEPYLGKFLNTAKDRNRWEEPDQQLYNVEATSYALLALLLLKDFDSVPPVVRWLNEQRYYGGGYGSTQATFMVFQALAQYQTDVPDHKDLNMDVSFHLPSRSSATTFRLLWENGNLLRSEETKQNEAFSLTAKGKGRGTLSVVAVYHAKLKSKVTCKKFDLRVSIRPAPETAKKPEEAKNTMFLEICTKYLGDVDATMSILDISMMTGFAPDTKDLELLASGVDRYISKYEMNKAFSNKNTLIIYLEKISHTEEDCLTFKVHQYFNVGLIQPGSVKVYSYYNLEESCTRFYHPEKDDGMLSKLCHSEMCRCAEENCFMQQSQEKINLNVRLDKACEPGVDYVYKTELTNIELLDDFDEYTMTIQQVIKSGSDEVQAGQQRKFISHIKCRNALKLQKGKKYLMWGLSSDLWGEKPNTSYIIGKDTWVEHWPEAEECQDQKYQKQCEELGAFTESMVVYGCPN
UniProt P62897: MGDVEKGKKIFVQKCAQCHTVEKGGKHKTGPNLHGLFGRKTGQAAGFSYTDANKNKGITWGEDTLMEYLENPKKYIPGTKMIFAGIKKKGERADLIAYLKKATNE

These are yes or no findings as the source states them, for the method shown. In cells and extracts the contact can be indirect. These calls come from enrichment with a bait or labelling near it, and not all partners need be listed.

The experiment concerns the target complement C3 (mouse, in heart lysate or cytosolic fraction of WT mice after I/R) (mouse (endogenous in C57BL/6 heart)) (UniProt P01027). The experiment can be described thus: affinity purification with mass spectrometry; C3-containing complexes isolated with anti-C3d conjugated Dynabeads from heart lysates of WT and C3-/- mice after 1 h ischemia/3 h reperfusion; trypsin digest, label-free shotgun LC-MS, WT compared with C3-/-.

For “cytochrome c (mouse, heart) (from UniProt P62897 1-105)”, the binding entry is reported as “binds”.
